According to US12491217B2, “Compositions and methods for promoting healthy neural development in an unborn baby” (The Regents of the University of California, priority 2019, dated 2025):

Key:
[1] = Metabolomics of maternal serum at E14.5; format: in vivo, C57Bl/6J mice
[2] = Metabolomics of fetal brain at E14.5; format: in vivo, C57Bl/6J mice
[3] = metabolite level in E14.5 fetal brain, ANOVA contrast ABX/SPF
[4] = metabolite level in E14.5 fetal brain, ANOVA contrast GF/ABX
[5] = metabolite level in E14.5 fetal brain, ANOVA contrast GF/SPF
[6] = metabolite level in E14.5 fetal brain, ANOVA contrast GF/Sp
[7] = metabolite level in E14.5 fetal brain, ANOVA contrast Sp/ABX
[8] = metabolite level in E14.5 fetal brain, ANOVA contrast Sp/SPF

Row | SMILES | fold of change ABX/SPF [2, 3] | fold of change GF/ABX [2, 4] | fold of change GF/SPF [2, 5] | fold of change GF/Sp [2, 6] | fold of change Sp/ABX [2, 7] | fold of change Sp/SPF [2, 8] | also measured
1 | CC(C(=O)O)c1ccc(O)cc1 (stereo not drawn) [2-(4-hydroxyphenyl)propionate] | – | – | – | – | – | – | fold of change ABX/SPF [1]: 0.06; fold of change GF/ABX [1]: 1.00; fold of change GF/SPF [1]: 0.06; fold of change GF/Sp [1]: 0.06; fold of change Sp/ABX [1]: 16.71; fold of change Sp/SPF [1]: 0.99
2 | O=C(O)CCc1cccc(O)c1.O=S(=O)(O)O [3-(3-hydroxyphenyl)propionate sulfate] | – | – | – | – | – | – | fold of change ABX/SPF [1]: 0.01; fold of change GF/ABX [1]: 1.00; fold of change GF/SPF [1]: 0.01; fold of change GF/Sp [1]: 0.14; fold of change Sp/ABX [1]: 7.24; fold of change Sp/SPF [1]: 0.07
3 | C[C@H](CCC(=O)O)[C@H]1CC[C@H]2[C@@H]3C(=O)C[C@@H]4C[C@H](O)CC[C@]4(C)[C@H]3C[C@H](O)[C@]12C [7-ketodeoxycholate] | – | – | – | – | – | – | fold of change ABX/SPF [1]: 0.00; fold of change GF/ABX [1]: 1.00; fold of change GF/SPF [1]: 0.00; fold of change GF/Sp [1]: 0.00; fold of change Sp/ABX [1]: 717.10; fold of change Sp/SPF [1]: 3.31
4 | O=C1O[C@H]([C@@H](O)CO)C(=O)C1=O [compound 3663] | 0.24 | 2.77 | 0.66 | 0.78 | 3.56 | 0.85 | –
5 | O=C(O)C(O)C(O)CO (stereo not drawn) [compound 3664] | 0.51 | 2.35 | 1.20 | 1.12 | 2.10 | 1.08 | –
6 | O=C(O)C(=O)O [compound 3667] | 0.61 | 1.62 | 0.99 | 0.96 | 1.68 | 1.03 | –
7 | O=C(O)C(O)C(O)C(O)C(O)CO (stereo not drawn) [compound 3668] | 0.74 | 1.05 | 0.78 | 0.98 | 1.07 | 0.80 | –
8 | CN1c2c(nc(N)[nH]c2=O)NCC1CNc1ccc(C(=O)NC(CCC(=O)O)C(=O)O)cc1 (stereo not drawn) [compound 3698] | 0.92 | 0.87 | 0.80 | 0.71 | 1.22 | 1.12 | –
9 | C=CC1=C(C)c2cc3[n-]c(cc4[n-]c(cc5nc(cc1n2)C(C)=C5C=C)c(C)c4CCC(=O)O)c(CCC(=O)O)c3C.[Fe+2] [compound 3714] | 0.89 | 0.46 | 0.41 | 0.97 | 0.47 | 0.42 | –
10 | C=CC1=C(C)/C(=C/c2[nH]c(Cc3[nH]c(/C=C4\NC(=O)C(C)=C4C=C)c(C)c3CCC(=O)O)c(CCC(=O)O)c2C)NC1=O [compound 3715] | 0.78 | 0.84 | 0.66 | 1.25 | 0.68 | 0.53 | –
11 | C=CC1=C(C)C(=CC2=NC(=Cc3[nH]c(C=C4NC(=O)C(C)=C4C=C)c(C)c3CCC(=O)O)C(CCC(=O)O)=C2C)NC1=O [compound 3718] | 0.92 | 0.78 | 0.71 | 1.08 | 0.72 | 0.66 | –
12 | Cc1ncc(C[n+]2csc(CCO)c2C)c(N)n1 [compound 3727] | 0.67 | 0.84 | 0.56 | 0.88 | 0.96 | 0.64 | –
13 | Cc1ncc(C[n+]2csc(CCOP(=O)(O)O)c2C)c(N)n1 [compound 3728] | 0.84 | 0.99 | 0.83 | 0.93 | 1.06 | 0.89 | –
14 | Cc1ncc(CO)c(CN)c1O [compound 3751] | 0.95 | 0.61 | 0.58 | 0.72 | 0.85 | 0.81 | –
15 | Cc1ncc(CO)c(C=O)c1O [compound 3754] | 0.83 | 0.87 | 0.72 | 0.81 | 1.07 | 0.89 | –
16 | O=C(O)CNC(=O)c1ccccc1 [compound 3757] | 0.24 | 1.00 | 0.24 | 0.58 | 1.72 | 0.42 | –
17 | O=C(O)c1ccccc1 [compound 3771] | 0.96 | 1.17 | 1.12 | 1.22 | 0.96 | 0.92 | –

Row | SMILES | fold of change ABX/SPF [2, 3] | fold of change GF/ABX [2, 4] | fold of change GF/SPF [2, 5] | fold of change GF/Sp [2, 6] | fold of change Sp/ABX [2, 7] | fold of change Sp/SPF [2, 8] | also measured
18 | O=Cc1c[nH]c2ccccc12 [compound 3978] | 0.59 | 1.37 | 0.81 | 0.96 | 1.43 | 0.84 | –
19 | O=C(O)[C@H](O)[C@@H](O)[C@H](O)[C@H](O)CO [compound 4000] | 0.67 | 1.86 | 1.24 | 1.22 | 1.52 | 1.01 | –
20 | C[N+](C)(C)[C@@H](Cc1c[nH]c(=S)[nH]1)C(=O)[O-] [compound 4079] | 1.19 | 0.66 | 0.79 | 0.80 | 0.83 | 0.98 | –
21 | C[N+]1(C)CCCC[C@H]1C(=O)[O-] [compound 4108] | 0.38 | 1.24 | 0.46 | 0.65 | 1.91 | 0.72 | –
22 | O=C(O)[C@@H](O)[C@@H](O)[C@H](O)[C@H](O)CO [compound 4131] | 0.94 | 1.07 | 1.00 | 1.14 | 0.93 | 0.88 | –
23 | O=C(CO)NC1C(O)CC(O)(C(=O)O)OC1C(O)C(O)CO (stereo not drawn) [compound 4144] | 0.75 | 1.12 | 0.84 | 0.88 | 1.26 | 0.95 | –
24 | C[N+]1(C)CCC[C@H]1C(=O)[O-] [compound 4221] | 0.44 | 1.28 | 0.57 | 0.73 | 1.75 | 0.77 | –
25 | N[C@@H](CCCCn1c(C=O)ccc1CO)C(=O)O [compound 4274] | 0.46 | 0.87 | 0.40 | 0.41 | 2.14 | 0.98 | –
26 | O=C(O)C(O)C(=O)O [compound 4363] | 0.56 | 1.39 | 0.78 | 0.76 | 1.84 | 1.03 | –
27 | O=C(O)c1ccccc1O [compound 4756] | 0.71 | 1.04 | 0.74 | 0.80 | 1.29 | 0.92 | –
28 | O=S(=O)(O)O [compound 4832] | 1.06 | 0.91 | 0.96 | 1.02 | 0.90 | 0.95 | –
29 | N[C@@H](Cc1ccc(OS(=O)(=O)O)cc1)C(=O)O [compound 4835] | 0.47 | 1.22 | 0.58 | 0.61 | 2.01 | 0.95 | –
30 | CC1=NCCC(C(=O)O)N1 (stereo not drawn) [compound 4899] | 0.81 | 0.77 | 0.62 | 0.37 | 2.09 | 1.68 | –
31 | O=S1(=O)OC(c2ccc(O)cc2)(c2ccc(O)cc2)c2ccccc21 [compound 4926] | 0.91 | 20.85 | 18.88 | 20.85 | 1.00 | 0.91 | –
32 | O=S(=O)(O)C(F)(F)C(F)(F)C(F)(F)C(F)(F)C(F)(F)C(F)(F)C(F)(F)C(F)(F)F [compound 4930] | 1.16 | 1.07 | 1.25 | 0.54 | 1.99 | 2.31 | –
33 | O=C(O)C1CSCN1 (stereo not drawn) [compound 4971] | 1.08 | 0.52 | 0.56 | 1.19 | 0.44 | 0.47 | –
34 | O=C(O)CNC(=O)Cc1ccccc1 [phenylacetylglycine] | – | – | – | – | – | – | fold of change ABX/SPF ([2]; fetal brain, E14.5): 0.45; fold of change GF/ABX ([2]; fetal brain, E14.5): 1.00; fold of change GF/SPF ([2]; fetal brain, E14.5): 0.45; fold of change GF/Sp ([2]; fetal brain, E14.5): 0.56; fold of change Sp/ABX ([2]; fetal brain, E14.5): 1.79; fold of change Sp/SPF ([2]; fetal brain, E14.5): 0.80
